Experimental findings from PMC6395706 are described below.

Assay [1] addresses PTEN-L:EGFP (human) (UniProt P60484). As to the kind of experiment: condition: only PBS-treated neurons, without glutamate; affinity purification with mass spectrometry; GFP-Trap_M pull-down of EGFP-tagged PTEN variants from the purified cytosolic fraction of replaced primary neurons treated with PBS for 60 min; 1 h at 4 °C; washes in TBS with 0.05% NP-40; interaction defined by significant enrichment against an EGFP control; n = 4.

Assay [2] concerns the target PTEN:EGFP (not stated (the only PTEN cDNA named is the synthesised human PTEN-L)) (UniProt P60484). As to the kind of experiment: affinity purification with mass spectrometry; GFP-Trap_M pull-down of EGFP-tagged PTEN variants from the purified cytosolic fraction of replaced primary neurons treated with 50 µM glutamate for 60 min; 1 h at 4 °C; washes in TBS with 0.05% NP-40; interaction defined by significant enrichment against an EGFP control; n = 4.

Assay [3] has as its target PTEN-L:EGFP (human) (UniProt P60484). The description is as above.
For assay [4], the target named is PTEN:EGFP (not stated (the only PTEN cDNA named is the synthesised human PTEN-L)) (UniProt P60484). The assay is described as follows: affinity purification with mass spectrometry; GFP-Trap_M pull-down of EGFP-tagged PTEN variants from the nuclear fraction of replaced primary neurons treated with 50 µM glutamate for 60 min; 1 h at 4 °C; washes in TBS with 0.05% NP-40; interaction defined by significant enrichment against an EGFP control; n = 4.

The target of assay [5] is PTEN-L:EGFP (human) (UniProt P60484). The description is as above.

No constants are given. Whether binding was seen depends on the method and setting. In cells and extracts the contact can be indirect. A yes stands for co-enrichment or nearness to the bait. Other partners may have been found. For some assays here: A no says only that the protein was not detected with the bait.

B1: Farsa (protein, UniProt Q8C0C7 1-508)
chain: MADNPVLELLLRRLEVADGGLDSAELATQLGVEHQAVVGAVKSLQALGEVIEAELRSTKCWELTTEGEEIAREGSHEARVFRSIPLEGLVQSELMHLPSGKVGFSKAMSNKWIRVDKSAADGPRVFRVVDSIEDEVQKRLQLVQAGQAEKLAEKERNELRKRKLLTEVILKTYWVSKGKAFSTSVSKQEAELSPEMISSGSWRDRPFKPYNFSARGVLPDSGHLHPLLKVRSQFRQIFLEMGFTEMPTDNFIESSFWNFDALFQPQQHPARDQHDTFFLRDPAEALQLPMGYVQRVKRTHSQGGYGSQGYKYTWKLEEARKNLLRTHTTAASARALYQLAQKKPFTPAKYFSIDRVFRNETLDATHLAEFHQIEGVIADHGLTLGHLMGVLREFFTKLGITQLRFKPAYNPYTEPSMEVFSYHQGLKKWVEVGNSGVFRPEMLLPMGLPENVSVIAWGLSLERPTMIKYGINNIRELVGHKVNLQMVYDSPVCRLDIEPRSSKTQEAA
Consider B1, for which the binding result with PTEN-L:EGFP (human) [1] is given as “no binding”; in assay [2], “no binding”; with PTEN-L:EGFP (human) [3] it was “binds”.

B2: Hnrnph2 (protein, UniProt P70333 1-449)
chain: MMLSTEGREGFVVKVRGLPWSCSAEEVMRFFSDCKIQNGTSGVRFIYTREGRPSGEAFVELESEDEVKLALKKDRETMGHRYVEVFKSNSVEMDWVLKHTGPNSPDTANDGFVRLRGLPFGCSKEEIVQFFSGLEIVPNGMTLPVDFQGRSTGEAFVQFASQEIAEKALKKHKERIGHRYIEIFKSSRAEVRTHYDPPRKLMTMQRPGPYDRPGAGRGYNSIGRGAGFERMRRGAYGGGYGGYDDYGGYNDGYGFGSDRFGRDLNYCFSGMSDHRYGDGGSSFQSTTGHCVHMRGLPYRATENDIYNFFSPLNPMRVHIEIGPDGRVTGEADVEFATHEDAVAAMAKDKANMQHRYVELFLNSTAGTSGGAYDHSYVELFLNSTAGASGGAYGSQMMGGMGLSNQSSYGGPASQQLSGGYGGGYGGQSSMSGYDQVLQENSSDYQSNLA
Regarding B2, the binding result in the assay with PTEN-L:EGFP (human) [1] is given as “no binding”; in assay [2] it was “no binding”; in the assay with PTEN-L:EGFP (human) [3], “binds”.

B3: Maz (protein, UniProt P56671 1-477)
chain: MFPVFPCTLLAPPFPVLGLDSRGVGGLMNSFPPPQGHAQNPLQVGAELQSRFFASQGCAQSPFQAAPAPPPTPQAPAAEPLQVDLLPVLAAAQESAAAAAAAAAAAAAVVTAPPAPAAASTVDTAALKQPPAPPPPPPAVSAPAAEAAPPAAAATIAAAAATAVVAPTSTVAVAPVASVLEKKTKSKGPYICALCAKEFKNGYNLRRHEAIHTGAKAGRVPSGAMKMPTMVPLSLLSVPQLSGASGGGGEAGAGGGTTAVAAGGVVTTTASGKRIRKNHACEMCGKAFRDVYHLNRHKLSHSDEKPYQCPVCQQRFKRKDRMSYHVRSHDGAVHKPYNCSHCGKSFSRPDHLNSHVRQVHSTERPFKCEKCEAAFATKDRLRAHTVRHEEKVPCHVCGKMLSSAYISDHMKVHSQGPHHVCELCNKGTGEVCPMAAAAAAAAAAAAAVVAAPPTAVGSLSGAEGVPVSSQPLPSQPW
Regarding B3, the binding result in assay [4] is recorded as “no binding”; with PTEN-L:EGFP (human) [5] it was “binds”.
